Assay [1] concerns the target recombinant human syndecan-4 (with his-tag) (human) (UniProt P31431). The experiment in a line: co-IP; in vitro crosslinking reaction of S100A4 with gplTG, with or without TG inhibitor R283, then 1 µg recombinant human syndecan-4 at 37°C for 1 h; beads with anti-syndecan-4 antibody; Western blot for S100A4; both purified.
Assay [2] deals with recombinant human S100A4 (after cleavage of the his-tags) (human) (UniProt P26447). Kind of assay: ELISA; solid phase binding assay: S100A4 (his-tags removed, 1 μg/ml, Na2CO3 pH 9.6) coated on 96-well plates; 2 μg/ml his-tagged syndecan-4 in 50 mM Tris-HCl pH 7.4, 37°C, 1 h; detected by anti-his-tag antibody, OPD, 490 nm; both purified. On the technique in general: ELISA stands for enzyme-linked immunosorbent assay.

The chains behind the UniProt entries cited, without tags or fusion partners. Where a name states a change or a piece, a line headed by the entry shows the natural chain unless it says otherwise.
UniProt P31431: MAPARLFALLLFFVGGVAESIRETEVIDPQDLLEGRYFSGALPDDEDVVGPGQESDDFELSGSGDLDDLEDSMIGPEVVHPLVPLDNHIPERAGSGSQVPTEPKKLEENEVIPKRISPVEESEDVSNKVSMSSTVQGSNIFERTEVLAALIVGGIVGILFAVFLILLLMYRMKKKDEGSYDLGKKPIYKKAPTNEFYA
UniProt P26447: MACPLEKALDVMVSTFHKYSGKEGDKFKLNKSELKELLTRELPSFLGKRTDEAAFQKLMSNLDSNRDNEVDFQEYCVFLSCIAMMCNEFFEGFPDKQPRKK

Here are results for two substances from publication PMC3585722.

These are yes or no findings as the source states them, for the method shown. Binding calls can cover weak binding; strength is not graded here. For some assays here: In cells and extracts the contact can be indirect.

“recombinant human S100A4 (after cleavage of the his-tags) (from UniProt P26447 1-101)”: the binding result in assay [1] is listed as “binds”.
As to “recombinant human syndecan-4 (with his-tag) (from UniProt P31431) (receptor)”, the binding result in assay [2] was “binds”.
